Measurements from the supplement of paper PMC10849652.
The list shows a part of the results.

Protein sequences, listed by entry. Tags and fused reporters are not part of them. Lines headed by an entry give the natural chain unless they say otherwise; changes in a name come on top.
UniProt Q92562: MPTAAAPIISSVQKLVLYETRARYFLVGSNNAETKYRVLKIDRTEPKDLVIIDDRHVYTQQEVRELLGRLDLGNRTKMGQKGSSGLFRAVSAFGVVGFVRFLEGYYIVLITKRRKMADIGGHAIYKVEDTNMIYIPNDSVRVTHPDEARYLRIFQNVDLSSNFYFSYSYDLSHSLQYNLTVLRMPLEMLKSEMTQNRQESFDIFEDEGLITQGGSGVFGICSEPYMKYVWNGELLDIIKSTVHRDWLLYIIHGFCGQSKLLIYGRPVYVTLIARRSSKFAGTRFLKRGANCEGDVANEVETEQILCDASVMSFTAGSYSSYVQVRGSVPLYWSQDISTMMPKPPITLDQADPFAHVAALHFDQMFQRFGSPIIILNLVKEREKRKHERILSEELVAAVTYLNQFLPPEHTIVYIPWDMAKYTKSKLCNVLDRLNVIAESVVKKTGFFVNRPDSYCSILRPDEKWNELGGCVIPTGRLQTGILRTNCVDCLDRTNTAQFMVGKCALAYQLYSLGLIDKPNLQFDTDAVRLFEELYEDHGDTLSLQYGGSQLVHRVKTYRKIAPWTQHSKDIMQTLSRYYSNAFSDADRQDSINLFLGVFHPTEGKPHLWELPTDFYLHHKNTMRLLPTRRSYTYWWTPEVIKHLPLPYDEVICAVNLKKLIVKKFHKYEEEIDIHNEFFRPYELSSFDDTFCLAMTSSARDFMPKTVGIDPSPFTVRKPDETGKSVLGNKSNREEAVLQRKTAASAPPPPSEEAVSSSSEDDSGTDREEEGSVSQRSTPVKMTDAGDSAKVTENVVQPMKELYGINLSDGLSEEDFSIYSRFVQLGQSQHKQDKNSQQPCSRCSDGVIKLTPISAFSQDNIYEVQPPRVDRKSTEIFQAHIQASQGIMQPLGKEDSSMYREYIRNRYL
UniProt P09038, whole entry, looked up: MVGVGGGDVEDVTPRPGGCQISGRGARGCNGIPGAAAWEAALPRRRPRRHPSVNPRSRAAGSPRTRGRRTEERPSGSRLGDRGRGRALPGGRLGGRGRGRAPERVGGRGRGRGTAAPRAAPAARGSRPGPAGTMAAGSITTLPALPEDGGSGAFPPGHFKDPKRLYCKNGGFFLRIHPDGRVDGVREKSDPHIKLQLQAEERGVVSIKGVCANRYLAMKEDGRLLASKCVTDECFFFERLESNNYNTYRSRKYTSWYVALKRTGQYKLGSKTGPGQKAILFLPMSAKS
UniProt O95684: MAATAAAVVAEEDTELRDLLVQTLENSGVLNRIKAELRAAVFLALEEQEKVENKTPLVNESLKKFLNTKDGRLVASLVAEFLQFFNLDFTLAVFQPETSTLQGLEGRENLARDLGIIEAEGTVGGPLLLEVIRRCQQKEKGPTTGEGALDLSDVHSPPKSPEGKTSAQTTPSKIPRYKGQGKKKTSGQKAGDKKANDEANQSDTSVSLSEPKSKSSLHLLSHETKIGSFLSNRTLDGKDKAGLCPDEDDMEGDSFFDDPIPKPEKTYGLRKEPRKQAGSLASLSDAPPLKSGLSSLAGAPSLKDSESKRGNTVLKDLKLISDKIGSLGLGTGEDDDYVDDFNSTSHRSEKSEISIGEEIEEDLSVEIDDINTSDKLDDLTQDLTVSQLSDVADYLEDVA
UniProt Q9H4M3: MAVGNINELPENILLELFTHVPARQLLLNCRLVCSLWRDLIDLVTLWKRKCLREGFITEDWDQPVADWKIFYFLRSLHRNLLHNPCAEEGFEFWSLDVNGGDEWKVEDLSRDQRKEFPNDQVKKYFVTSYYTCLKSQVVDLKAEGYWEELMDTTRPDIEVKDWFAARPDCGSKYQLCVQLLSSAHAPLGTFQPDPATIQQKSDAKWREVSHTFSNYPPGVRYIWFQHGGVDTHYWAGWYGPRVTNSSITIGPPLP
UniProt P12318: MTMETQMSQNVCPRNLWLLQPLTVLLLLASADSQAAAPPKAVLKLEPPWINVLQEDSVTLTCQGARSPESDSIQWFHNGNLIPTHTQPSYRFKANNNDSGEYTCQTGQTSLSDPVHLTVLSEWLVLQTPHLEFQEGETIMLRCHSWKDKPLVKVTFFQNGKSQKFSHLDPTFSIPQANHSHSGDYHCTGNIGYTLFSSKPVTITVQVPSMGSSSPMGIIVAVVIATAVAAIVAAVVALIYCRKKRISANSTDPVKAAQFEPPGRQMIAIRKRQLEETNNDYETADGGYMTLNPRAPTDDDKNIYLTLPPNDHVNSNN
UniProt Q9NVI1: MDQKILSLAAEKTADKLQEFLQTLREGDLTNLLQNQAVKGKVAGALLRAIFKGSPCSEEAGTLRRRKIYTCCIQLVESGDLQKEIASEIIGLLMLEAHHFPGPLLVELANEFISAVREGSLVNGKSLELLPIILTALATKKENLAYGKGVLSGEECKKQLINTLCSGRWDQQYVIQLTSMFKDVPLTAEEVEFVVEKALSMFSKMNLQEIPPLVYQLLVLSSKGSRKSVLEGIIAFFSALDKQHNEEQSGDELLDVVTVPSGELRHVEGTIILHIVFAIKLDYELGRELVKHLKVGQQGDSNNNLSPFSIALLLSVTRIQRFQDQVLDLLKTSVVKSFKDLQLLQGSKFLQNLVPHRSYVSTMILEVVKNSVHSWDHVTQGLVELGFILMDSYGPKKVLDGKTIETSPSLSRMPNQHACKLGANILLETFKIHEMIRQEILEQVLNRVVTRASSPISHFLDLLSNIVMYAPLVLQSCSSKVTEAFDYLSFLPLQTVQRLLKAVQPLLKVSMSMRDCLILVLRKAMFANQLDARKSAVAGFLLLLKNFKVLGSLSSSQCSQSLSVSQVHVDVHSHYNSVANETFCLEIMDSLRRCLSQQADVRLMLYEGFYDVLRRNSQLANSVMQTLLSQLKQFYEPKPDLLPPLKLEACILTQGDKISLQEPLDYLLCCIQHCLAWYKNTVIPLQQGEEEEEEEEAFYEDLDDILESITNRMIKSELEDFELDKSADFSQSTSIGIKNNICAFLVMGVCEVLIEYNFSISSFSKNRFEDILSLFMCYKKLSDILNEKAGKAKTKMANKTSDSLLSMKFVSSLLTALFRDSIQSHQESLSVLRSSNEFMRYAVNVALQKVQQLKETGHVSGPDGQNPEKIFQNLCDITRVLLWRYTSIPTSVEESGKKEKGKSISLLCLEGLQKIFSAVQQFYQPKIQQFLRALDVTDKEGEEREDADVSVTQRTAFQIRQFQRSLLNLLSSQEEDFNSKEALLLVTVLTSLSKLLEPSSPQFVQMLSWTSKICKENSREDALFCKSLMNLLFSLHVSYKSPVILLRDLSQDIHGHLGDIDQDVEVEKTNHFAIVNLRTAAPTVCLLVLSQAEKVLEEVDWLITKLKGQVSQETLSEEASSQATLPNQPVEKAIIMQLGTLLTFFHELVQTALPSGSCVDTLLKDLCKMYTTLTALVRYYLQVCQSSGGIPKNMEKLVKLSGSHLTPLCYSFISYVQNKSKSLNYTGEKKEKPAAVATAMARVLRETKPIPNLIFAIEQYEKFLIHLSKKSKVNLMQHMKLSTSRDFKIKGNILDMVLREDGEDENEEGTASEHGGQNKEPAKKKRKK
UniProt Q6UN15: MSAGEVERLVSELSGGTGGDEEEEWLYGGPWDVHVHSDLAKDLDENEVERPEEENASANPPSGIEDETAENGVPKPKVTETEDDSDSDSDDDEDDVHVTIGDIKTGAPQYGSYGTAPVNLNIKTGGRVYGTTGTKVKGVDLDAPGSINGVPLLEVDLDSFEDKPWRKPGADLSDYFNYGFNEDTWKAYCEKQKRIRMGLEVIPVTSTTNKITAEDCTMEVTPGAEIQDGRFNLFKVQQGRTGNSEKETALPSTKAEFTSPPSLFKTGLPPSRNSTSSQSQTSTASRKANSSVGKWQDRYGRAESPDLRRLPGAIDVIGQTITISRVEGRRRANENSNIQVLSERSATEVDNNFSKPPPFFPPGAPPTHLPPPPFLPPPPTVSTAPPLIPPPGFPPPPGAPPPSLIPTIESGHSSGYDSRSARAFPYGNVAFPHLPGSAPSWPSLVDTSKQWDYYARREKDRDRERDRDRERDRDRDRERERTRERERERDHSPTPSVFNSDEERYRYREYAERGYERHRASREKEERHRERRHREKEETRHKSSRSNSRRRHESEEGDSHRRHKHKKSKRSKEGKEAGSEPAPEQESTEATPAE
UniProt Q96GI7: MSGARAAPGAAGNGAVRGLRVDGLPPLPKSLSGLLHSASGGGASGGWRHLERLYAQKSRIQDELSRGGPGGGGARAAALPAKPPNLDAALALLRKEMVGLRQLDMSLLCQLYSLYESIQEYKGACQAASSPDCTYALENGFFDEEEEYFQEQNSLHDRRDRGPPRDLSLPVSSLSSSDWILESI
UniProt Q96AC1: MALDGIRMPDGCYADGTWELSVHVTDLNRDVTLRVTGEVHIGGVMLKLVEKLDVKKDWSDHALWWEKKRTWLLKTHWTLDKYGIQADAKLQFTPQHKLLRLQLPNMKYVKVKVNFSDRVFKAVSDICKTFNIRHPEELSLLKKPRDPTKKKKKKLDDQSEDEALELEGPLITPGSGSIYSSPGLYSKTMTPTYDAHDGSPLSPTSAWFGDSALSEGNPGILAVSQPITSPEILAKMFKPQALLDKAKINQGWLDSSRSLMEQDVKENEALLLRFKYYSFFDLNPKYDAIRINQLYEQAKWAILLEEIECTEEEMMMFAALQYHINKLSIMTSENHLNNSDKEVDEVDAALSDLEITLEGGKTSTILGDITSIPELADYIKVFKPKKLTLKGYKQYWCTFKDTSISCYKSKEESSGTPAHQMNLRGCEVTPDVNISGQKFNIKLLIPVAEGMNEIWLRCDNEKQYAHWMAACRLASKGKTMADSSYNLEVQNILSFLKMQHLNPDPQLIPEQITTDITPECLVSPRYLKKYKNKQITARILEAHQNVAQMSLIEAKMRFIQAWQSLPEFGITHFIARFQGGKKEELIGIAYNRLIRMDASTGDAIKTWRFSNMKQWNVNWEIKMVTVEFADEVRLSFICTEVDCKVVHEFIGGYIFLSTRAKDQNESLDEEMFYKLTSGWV
UniProt Q9UIM3: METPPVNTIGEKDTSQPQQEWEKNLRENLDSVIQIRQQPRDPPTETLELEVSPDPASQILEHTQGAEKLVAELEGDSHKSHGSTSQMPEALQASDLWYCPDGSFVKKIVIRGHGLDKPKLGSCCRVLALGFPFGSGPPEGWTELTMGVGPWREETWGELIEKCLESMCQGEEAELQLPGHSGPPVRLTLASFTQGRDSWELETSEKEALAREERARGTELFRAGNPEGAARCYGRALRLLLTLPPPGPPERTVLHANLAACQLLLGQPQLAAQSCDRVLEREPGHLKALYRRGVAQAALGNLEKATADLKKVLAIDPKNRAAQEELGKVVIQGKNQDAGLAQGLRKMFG
UniProt Q7L8L6: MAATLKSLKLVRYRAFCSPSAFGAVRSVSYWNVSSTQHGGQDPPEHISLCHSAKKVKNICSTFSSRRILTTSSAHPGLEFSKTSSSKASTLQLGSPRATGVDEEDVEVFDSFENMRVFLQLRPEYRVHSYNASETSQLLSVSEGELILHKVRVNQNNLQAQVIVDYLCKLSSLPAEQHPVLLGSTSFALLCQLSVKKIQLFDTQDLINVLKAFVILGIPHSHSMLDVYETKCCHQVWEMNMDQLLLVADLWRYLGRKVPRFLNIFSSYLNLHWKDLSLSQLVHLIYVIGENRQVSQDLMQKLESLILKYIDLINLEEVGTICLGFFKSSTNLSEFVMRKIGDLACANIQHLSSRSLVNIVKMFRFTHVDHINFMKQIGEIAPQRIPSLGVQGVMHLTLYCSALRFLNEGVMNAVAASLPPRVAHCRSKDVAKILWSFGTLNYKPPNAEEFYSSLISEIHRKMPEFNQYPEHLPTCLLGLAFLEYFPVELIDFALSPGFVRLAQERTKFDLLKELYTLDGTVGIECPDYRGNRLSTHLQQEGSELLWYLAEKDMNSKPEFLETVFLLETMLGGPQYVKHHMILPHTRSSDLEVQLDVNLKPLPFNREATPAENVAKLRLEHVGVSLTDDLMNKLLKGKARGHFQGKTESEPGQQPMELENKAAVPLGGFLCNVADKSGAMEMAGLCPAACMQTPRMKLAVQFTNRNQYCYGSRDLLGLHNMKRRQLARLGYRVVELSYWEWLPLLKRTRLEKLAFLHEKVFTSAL
UniProt Q8WVX9: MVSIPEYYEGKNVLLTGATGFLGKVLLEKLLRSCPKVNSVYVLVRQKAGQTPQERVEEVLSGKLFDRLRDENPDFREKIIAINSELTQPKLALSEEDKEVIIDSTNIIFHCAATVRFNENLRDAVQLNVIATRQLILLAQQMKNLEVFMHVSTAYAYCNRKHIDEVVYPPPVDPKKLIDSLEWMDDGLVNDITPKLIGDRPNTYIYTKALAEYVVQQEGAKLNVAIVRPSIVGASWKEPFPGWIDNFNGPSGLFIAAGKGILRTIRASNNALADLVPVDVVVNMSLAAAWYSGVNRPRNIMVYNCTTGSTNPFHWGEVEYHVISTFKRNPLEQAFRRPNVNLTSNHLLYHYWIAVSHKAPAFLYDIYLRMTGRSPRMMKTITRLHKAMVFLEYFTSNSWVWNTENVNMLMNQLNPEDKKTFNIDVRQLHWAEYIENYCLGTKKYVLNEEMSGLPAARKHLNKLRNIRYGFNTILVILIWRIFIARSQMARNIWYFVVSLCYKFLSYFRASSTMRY

How the values were obtained:
Test in all cases: log2 fold change, soluble protein after heating vs DMSO (PISA); higher = thermal stabilisation; K562 lysate, 10 uM; active = over 0.2 and 3.5 SD of the protein, either way, in both replicates (recomputed)
[1] = compound: NCC(=O)Nc1ccc(-n2nc(C(F)(F)F)cc2-c2ccc3c(ccc4ccccc43)c2)cc1
Outline: (§1)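 Quantification was by TMTpro 16plex LC-MS/MS with equalised channel sums, applied to the supernatant after 21,000xg for 90 min. Samples were crude K562 extract at 1 mg/mL protein in PBS pH 7.4 with 1 mM MgCl2, treated with 10 μM compound for 30 min, heated for 3 min across 48°C-58°C, pooled and brought to 0.5% NP-40 at 4°C. Values are log-two fold changes in thermal stability relative to solvent controls, from duplicates.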

[2] = compound: O=C(CCCCCCC(=O)Nc1ccccc1)NO [vorinostat]
Outline: as §1

[3] = compound: O=C(O)c1ccc2c(c1)nc(Nc1cccc(Cl)c1)c1ccncc12 [silmitasertib]
Outline: as §1

[4] = compound: O=C1NC(=O)C(c2cnc3ccccn23)=C1c1cn2c3c(cc(F)cc13)CN(C(=O)N1CCCCC1)CC2
Outline: as §1

[5] = compound: c1cn2cc(-c3ccc4cn[nH]c4c3)nc(Nc3ccc(N4CCOCC4)cc3)c2n1 [entospletinib]
Outline: as §1

| Target | log2 fold change [1] | log2 fold change [2] | log2 fold change [3] | log2 fold change [4] | log2 fold change [5] |
| --- | --- | --- | --- | --- | --- |
| FLCN (UniProt Q8NFG4) | inactive: 0.073 | inactive: -0.1 | inactive: 0.012 | inactive: 0.051 | inactive: -0.019 |
| FBXL20 (UniProt Q96IG2) | inactive: -0.052 | inactive: -0.19 | inactive: -0.036 | inactive: 0.046 | inactive: -0.057 |
| FBXL8 (UniProt Q96CD0) | inactive: 0.001 | inactive: -0.078 | inactive: 0.037 | inactive: 0.045 | inactive: 0.068 |
| FEM1B (UniProt Q9UK73) | inactive: 0.035 | inactive: 0.028 | inactive: -0.026 | inactive: -0.054 | inactive: -0.074 |
| FIG4 (UniProt Q92562) | inactive: -0.037 | active: -0.517 | inactive: 0.017 | inactive: 0.056 | inactive: 0.052 |
| FGF2 (UniProt P09038) | inactive: 0.022 | inactive: 0.097 | inactive: 0.043 | inactive: 0.044 | inactive: -0.013 |
| FGFR1OP isoform 3 (UniProt O95684) | inactive: -0.189 |  |  |  |  |
| FBXO9 (UniProt Q9UK97) | inactive: -0.154 | inactive: -0.135 | inactive: 0.009 | inactive: -0.046 | inactive: -0.188 |
| FIS1 (UniProt Q9Y3D6) | inactive: -0.003 | inactive: 0.132 | inactive: -0.119 | inactive: -0.012 | inactive: -0.016 |
| FARSB (UniProt Q9NSD9) | inactive: -0.01 | inactive: 0.015 | inactive: 0.013 | inactive: -0.013 | inactive: 0.011 |
| FKBP14 (UniProt Q9NWM8) | inactive: 0.047 | inactive: 0.086 | inactive: 0.009 | inactive: 0.056 | inactive: 0.021 |
| FNBP1 (UniProt Q96RU3) | inactive: 0.049 | inactive: -0.057 | inactive: -0.006 | inactive: 0.001 | inactive: -0.074 |
| FAM8A1 (UniProt Q9UBU6) | inactive: 0.081 | inactive: 0.182 | inactive: -0.037 | inactive: 0.067 | inactive: 0.125 |
| FGFR1OP2 (UniProt Q9NVK5) | inactive: 0.066 | inactive: -0.015 | inactive: 0.041 | inactive: -0.021 | inactive: 0.015 |
| FKBP1A (UniProt P62942) | inactive: -0.154 | inactive: 0.036 | inactive: -0.006 | inactive: 0.068 | inactive: 0.049 |
| FNTA (UniProt P49354) | inactive: -0.027 | inactive: 0.06 | inactive: 0.027 | inactive: 0.027 | inactive: -0.03 |
| FKBP5 (UniProt Q13451) | inactive: -0.008 | inactive: -0.145 | inactive: 0.017 | inactive: -0.021 | inactive: 0.006 |
| FBXO44 isoform 2 (UniProt Q9H4M3) | inactive: -0.075 | inactive: -0.213 | inactive: 0.188 |  |  |
| FKBP15 (UniProt Q5T1M5) | inactive: -0.001 | inactive: 0.064 | inactive: -0.016 | inactive: 0.024 | inactive: -0.024 |
| FAM86B2 (UniProt P0C5J1) | inactive: -0.248 |  |  |  |  |
| FLNA (UniProt H0Y5C6) | inactive: 0.14 | inactive: 0.123 | inactive: -0.039 |  |  |
| FCGR2A (UniProt P12318) | inactive: 0.039 | inactive: 0.111 | inactive: 0 | inactive: -0.001 | inactive: -0.022 |
| FCSK (UniProt Q8N0W3) | inactive: -0.016 | inactive: 0.056 | inactive: 0.001 | inactive: 0.063 | inactive: 0.026 |
| FANCI (UniProt Q9NVI1) | inactive: 0.002 | active: -0.389 | inactive: 0.062 | inactive: 0.018 | inactive: 0.039 |
| FLAD1 (UniProt Q8NFF5) | inactive: -0.012 | active: -0.397 | inactive: 0.102 | inactive: -0.005 | inactive: 0.037 |
| FARP2 (UniProt H7C3M7) | inactive: -0.079 | inactive: 0.062 | inactive: -0.188 | inactive: 0.032 | inactive: -0.013 |
| FAM98C (UniProt Q17RN3) | inactive: 0.033 | inactive: -0.11 | inactive: 0.235 | inactive: -0.073 | inactive: 0.081 |
| FBXO7 (UniProt Q9Y3I1) | inactive: 0.007 | inactive: -0.033 | inactive: -0.017 | inactive: -0.065 | inactive: 0.024 |

| Target | log2 fold change [1] | log2 fold change [2] | log2 fold change [3] | log2 fold change [4] | log2 fold change [5] |
| --- | --- | --- | --- | --- | --- |
| FAM98A (UniProt Q8NCA5) | inactive: 0.027 | active: -0.558 | inactive: 0.005 | inactive: 0.01 | inactive: 0.006 |
| FN1 (UniProt P02751) | inactive: -0.021 | inactive: 0.096 | inactive: -0.045 | inactive: -0.02 | inactive: 0.017 |
| FIP1L1 (UniProt Q6UN15) | inactive: 0.046 | inactive: 0.049 | inactive: -0.079 | inactive: -0.021 | inactive: 0 |
| FAM89A (UniProt Q96GI7) | inactive: -0.274 | inactive: 0.003 | inactive: 0.001 | inactive: 0.024 | inactive: 0.021 |
| FBXO4 (UniProt Q9UKT5) | inactive: -0.002 | inactive: -0.175 | inactive: -0.021 | inactive: -0.007 | inactive: -0.071 |
| FDPS (UniProt P14324) | inactive: 0.047 | inactive: -0.085 | inactive: 0.035 | inactive: -0.023 | inactive: 0.037 |
| FLYWCH2 (UniProt Q96CP2) | inactive: 0.022 | inactive: 0.068 | inactive: -0.064 | inactive: 0 | inactive: -0.03 |
| FLOT2 (UniProt Q14254) | inactive: 0.017 | inactive: 0.135 | inactive: 0.028 | inactive: -0.003 | inactive: 0.026 |
| FNBP1L (UniProt Q5T0N5) | inactive: 0.001 | active: -0.373 | inactive: 0.102 | inactive: -0.041 | inactive: 0.017 |
| FASTKD1 (UniProt Q53R41) | inactive: 0.021 | inactive: -0.293 | inactive: 0.06 | inactive: 0.028 | inactive: 0.002 |
| FERMT2 isoform 3 (UniProt Q96AC1) | inactive: -0.047 | inactive: 0.047 | inactive: -0.091 | inactive: -0.002 | inactive: -0.009 |
| FKBPL (UniProt Q9UIM3) | inactive: 0.034 | inactive: -0.011 | inactive: -0.052 | inactive: -0.031 | inactive: -0.024 |
| FKBP4 (UniProt Q02790) | inactive: -0.002 | inactive: 0.035 | inactive: -0.012 | inactive: -0.016 | inactive: 0.004 |
| FGD6 (UniProt Q6ZV73) | inactive: 0.268 | inactive: -0.269 | inactive: 0.02 | inactive: 0.717 | inactive: -0.14 |
| FBRS (UniProt J3KNZ9) | inactive: -0.066 | inactive: -0.056 | inactive: 0.051 | inactive: 0 | inactive: -0.102 |
| FGGY isoform 3 (UniProt Q96C11) | inactive: -0.076 | inactive: 0.101 | inactive: -0.032 | inactive: -0.134 | inactive: -0.009 |
| FBXO2 (UniProt Q9UK22) | inactive: -0.068 | inactive: 0.162 | inactive: -0.176 | inactive: 0.041 | inactive: 0.14 |
| FAT2 (UniProt Q9NYQ8) | inactive: 0.393 | inactive: 0.001 | inactive: 0.098 | inactive: 0.178 | inactive: 0.162 |
| FHOD1 (UniProt Q9Y613) | inactive: -0.018 | active: -0.47 | inactive: 0.008 | inactive: -0.02 | inactive: -0.002 |
| FDFT1 (UniProt P37268) | inactive: -0.004 | inactive: -0.006 | inactive: 0.041 | inactive: 0.004 | inactive: 0.06 |
| FASTKD5 (UniProt Q7L8L6) | inactive: 0.016 | active: -0.354 | inactive: 0.053 | inactive: 0.022 | inactive: -0.008 |
| FDX1 (UniProt P10109) | inactive: -0.02 | inactive: 0.166 | inactive: -0.066 | inactive: 0.043 | inactive: -0.066 |
| FBXO42 (UniProt Q6P3S6) | inactive: 0.132 | inactive: 0.214 | inactive: -0.012 | inactive: -0.006 | inactive: 0.058 |
| FAR1 (UniProt Q8WVX9) | inactive: -0.125 | inactive: -0.124 | inactive: 0.055 | inactive: -0.03 | inactive: 0.097 |
| FKBP3 (UniProt Q00688) | inactive: 0.018 | inactive: 0.158 | inactive: -0.031 | inactive: 0.009 | inactive: -0.005 |
| FN3K (UniProt Q9H479) | inactive: -0.001 | inactive: 0.126 | inactive: -0.033 | inactive: 0.011 | inactive: 0.011 |
| FLOT1 (UniProt O75955) | inactive: 0.01 | inactive: 0.148 | inactive: -0.014 | inactive: 0.002 | inactive: 0.031 |

3 entries picked at random from the list so far, as already listed:

| Target | log2 fold change [1] | log2 fold change [2] | log2 fold change [3] | log2 fold change [4] | log2 fold change [5] |
| --- | --- | --- | --- | --- | --- |
| FBXO42 (UniProt Q6P3S6) | inactive: 0.132 | inactive: 0.214 | inactive: -0.012 | inactive: -0.006 | inactive: 0.058 |
| FKBP14 (UniProt Q9NWM8) | inactive: 0.047 | inactive: 0.086 | inactive: 0.009 | inactive: 0.056 | inactive: 0.021 |
| FARP2 (UniProt H7C3M7) | inactive: -0.079 | inactive: 0.062 | inactive: -0.188 | inactive: 0.032 | inactive: -0.013 |
